For some of these results: Results from cells or extracts need not show a direct contact. For some of these results: Tags and fusion partners may be left off the protein sequences shown. For some of these results: Construct, isoform or probe ends are uncertain for at least one entry. For some of these results: No signal at the amounts used counts as a negative. For some of these results: A weaker result is weaker than the reference pair of the same experiment.
Key:
[1] = test system: IRE-BP1 C-terminal fragment (Trx fusion) (Rattus norvegicus); test: competition with a labelled probe; settings: purified recombinant protein, protein details: N-terminal Trx-His6 (pET-32a, E. coli)
[2] = target: Foxo1 (hepatic nuclear extract) (Rattus norvegicus) (UniProt G3V7R4); test: EMSA; settings: protein in an extract
[3] = test system: IRE-BP1 endogenous (hepatic nuclear extract) (Rattus norvegicus); test: EMSA; settings: protein in an extract
[4] = target: PPAR gamma (hepatic nuclear extract) (Rattus norvegicus) (UniProt O88275); test: EMSA; settings: protein in an extract
[5] = target: Sp1 (hepatic nuclear extract) (Rattus norvegicus) (UniProt Q01714); test: EMSA; settings: protein in an extract
[6] = test system: IRE-BP1 C-terminal fragment (Trx fusion) (Rattus norvegicus); test: EMSA; settings: purified recombinant protein; protein details: N-terminal Trx-His6 (pET-32a, E. coli); label: 32P
[7] = target: T1, HBP1 (HMG box containing protein 1) (Rattus norvegicus) (UniProt Q62661); test: one hybrid; settings: protein in cells; protein details: GAL4 AD fusion (yeast one-hybrid); label: 32P
T1 sequence (looked up, limits assumed): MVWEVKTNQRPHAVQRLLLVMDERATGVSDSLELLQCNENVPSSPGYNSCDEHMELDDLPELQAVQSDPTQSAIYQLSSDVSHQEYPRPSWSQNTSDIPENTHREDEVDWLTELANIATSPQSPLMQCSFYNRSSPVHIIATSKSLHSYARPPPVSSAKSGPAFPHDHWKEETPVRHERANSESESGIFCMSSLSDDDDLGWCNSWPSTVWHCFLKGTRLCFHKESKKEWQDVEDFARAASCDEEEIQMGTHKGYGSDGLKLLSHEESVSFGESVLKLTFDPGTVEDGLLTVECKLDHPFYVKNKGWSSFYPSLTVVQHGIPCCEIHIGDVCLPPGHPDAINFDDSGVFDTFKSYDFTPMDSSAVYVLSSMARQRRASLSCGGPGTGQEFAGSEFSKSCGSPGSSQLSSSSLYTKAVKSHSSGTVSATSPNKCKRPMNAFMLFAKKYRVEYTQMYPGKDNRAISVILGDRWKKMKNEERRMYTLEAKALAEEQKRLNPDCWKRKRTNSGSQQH

By UniProt entry, the sequences of proteins in these tests, tags left out. Where a name states a change or a piece, a line headed by the entry shows the natural chain unless it says otherwise. Residues count along the entry.
UniProt G3V7R4: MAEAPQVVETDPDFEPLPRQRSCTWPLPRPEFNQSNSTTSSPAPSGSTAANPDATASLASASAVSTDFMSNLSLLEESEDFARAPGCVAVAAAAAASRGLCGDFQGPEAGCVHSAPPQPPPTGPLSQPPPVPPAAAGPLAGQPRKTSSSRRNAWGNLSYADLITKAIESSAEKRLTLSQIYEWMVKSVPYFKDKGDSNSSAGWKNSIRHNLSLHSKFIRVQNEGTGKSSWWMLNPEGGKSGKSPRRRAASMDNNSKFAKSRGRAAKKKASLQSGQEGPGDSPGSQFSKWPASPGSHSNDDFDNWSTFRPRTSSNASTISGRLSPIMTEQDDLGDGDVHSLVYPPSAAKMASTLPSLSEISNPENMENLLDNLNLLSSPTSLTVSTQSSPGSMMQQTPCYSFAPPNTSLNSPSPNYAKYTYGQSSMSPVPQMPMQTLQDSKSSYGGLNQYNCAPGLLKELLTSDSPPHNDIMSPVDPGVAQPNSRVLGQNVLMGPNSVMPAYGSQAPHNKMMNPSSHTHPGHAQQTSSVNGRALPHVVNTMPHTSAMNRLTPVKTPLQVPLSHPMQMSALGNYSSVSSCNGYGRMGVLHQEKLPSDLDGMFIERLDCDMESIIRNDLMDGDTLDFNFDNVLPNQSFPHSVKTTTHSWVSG
UniProt O88275: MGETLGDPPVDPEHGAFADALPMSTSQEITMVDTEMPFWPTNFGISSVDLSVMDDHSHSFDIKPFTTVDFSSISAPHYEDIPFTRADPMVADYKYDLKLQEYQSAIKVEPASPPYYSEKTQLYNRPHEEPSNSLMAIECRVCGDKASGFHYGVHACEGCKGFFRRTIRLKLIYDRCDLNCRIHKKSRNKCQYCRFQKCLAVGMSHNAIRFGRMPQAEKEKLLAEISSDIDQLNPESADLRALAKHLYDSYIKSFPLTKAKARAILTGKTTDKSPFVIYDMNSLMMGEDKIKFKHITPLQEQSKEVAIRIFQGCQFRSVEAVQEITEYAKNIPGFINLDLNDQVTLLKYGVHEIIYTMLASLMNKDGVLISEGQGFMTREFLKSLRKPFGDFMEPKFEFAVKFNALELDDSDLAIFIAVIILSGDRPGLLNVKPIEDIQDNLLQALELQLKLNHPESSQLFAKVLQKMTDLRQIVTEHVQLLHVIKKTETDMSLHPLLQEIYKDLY
UniProt Q01714, 2-786: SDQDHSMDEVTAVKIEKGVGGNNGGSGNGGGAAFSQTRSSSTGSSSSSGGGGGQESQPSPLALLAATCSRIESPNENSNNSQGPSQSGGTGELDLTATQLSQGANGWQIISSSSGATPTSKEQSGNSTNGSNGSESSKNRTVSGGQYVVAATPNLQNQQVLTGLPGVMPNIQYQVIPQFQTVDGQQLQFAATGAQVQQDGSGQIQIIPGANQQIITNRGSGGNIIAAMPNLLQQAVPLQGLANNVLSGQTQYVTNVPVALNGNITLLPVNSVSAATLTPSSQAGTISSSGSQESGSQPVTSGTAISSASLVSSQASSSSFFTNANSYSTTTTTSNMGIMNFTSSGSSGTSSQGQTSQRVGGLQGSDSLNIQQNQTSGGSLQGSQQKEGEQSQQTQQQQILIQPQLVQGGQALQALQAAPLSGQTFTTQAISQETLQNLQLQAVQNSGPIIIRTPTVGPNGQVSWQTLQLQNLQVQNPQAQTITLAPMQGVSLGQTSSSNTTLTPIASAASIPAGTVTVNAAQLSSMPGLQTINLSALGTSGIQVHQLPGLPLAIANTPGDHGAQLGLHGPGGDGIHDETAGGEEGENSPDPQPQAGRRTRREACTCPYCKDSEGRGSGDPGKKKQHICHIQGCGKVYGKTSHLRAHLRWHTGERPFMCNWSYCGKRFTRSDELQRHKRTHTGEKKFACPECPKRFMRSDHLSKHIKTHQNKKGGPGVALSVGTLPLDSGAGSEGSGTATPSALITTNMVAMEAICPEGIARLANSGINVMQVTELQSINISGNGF

NFkB p65 = test: one hybrid; settings: protein in cells; protein details: GAL4 AD fusion (yeast one-hybrid); label: 32P
[8] = test system: IRE-BP1 C-terminal fragment (3.4-kb cDNA) (Rattus norvegicus); test: activity in cells; settings: no significant effect on transcription; protein in cells; only the site is given
[9] = weaker competition, 50-fold excess

Question: Does “TGGTGTTTTGACAAC (double strand) [PEPCK IRE]” bind [1, 9]?
Answer: Result: binds more weakly

Question: Does “AAGTTCCCCAACTTTCCCGCCTCTCAGCCTTTGAAAG (double strand) [GAPDH IRE]” bind ([1]; competed fully, 50-fold excess vs IGFBP-3 IRE)?
Answer: Result: binds

Question: Which results are given for “GTTTGTTTTGCTAGT (double strand) [IGFBP-1 IRE]”?
Answer: binding result [2]: no binding; binding result [3]: binds; binding result [4]: no binding; binding result [5]: no binding

Question: What does the source list for “AATTCAAGGGTATCCAGGAAAGTCTCCTTCAAG (double strand) [IGFBP-3 IRE]”?
Answer: binding result [6]: binds; binding result ([3]; label: 32P): binds; binding result ([5]; label: 32P): no binding; binding result [7]: binds; binding result (NFkB p65): binds

Question: Does “TATTTTGCGTGAGAGTTTCTAAAAGTCCAT (double strand) [Amylase IRE]” bind ([1]; competed fully, 50-fold excess)?
Answer: Result: binds

Question: Does “GGGACTTTCCGGGACTTTCC (double strand) [NFkB consensus]” bind ([1]; not competed, 50-fold excess)?
Answer: Result: no binding

Question: Does “GACTAGAACAAACAAGTCCTGCGTA (double strand) [TAT IRE]” bind [1, 9]?
Answer: Result: binds more weakly

Question: Which “activity on this sequence” value [8] does the source give for “ATCTATTTCCGTCATTAAGATA (double strand) [Prolactin IRE]” here?
Answer: Its value is “not active”.

Question: Does “ATCTATTTCCGTCATTAAGATA (double strand) [Prolactin IRE]” bind ([1]; little competition, 50-fold excess)?
Answer: Result: binds more weakly

Question: Which results are given for “GCCTCATTATTCCTGCCCACCAAT (double strand) [IGF-1 IRE]”?
Answer: binding result [3]: binds; binding result [5]: binds; binding result ([1]; competed fully, 50-fold excess): binds
